Not every detail of the peptide structures is certain; ends, links or a residue may be inferred. Ends that are not written are not given here. Peptide text beside a SMILES is read from it. * marks the point of attachment. Myristoyl = CCCCCCCCCCCCCC(=O)*
How the values were obtained:
[1] = test system: IL-2 transcription in Jurkat T cell line (NFATZ); assay: NFATZ Jurkat IL-2 promoter lacZ β-gal FACS assay; assay type: cell-based; conditions: 100 μM myristilated peptide
From the text: IL- 2 transcription was studied following activation with PMA and ionomycin. These two agents are known respectively to potentiate protein kinase C and calcium second messenger responses (including activation of CaN). Protein kinase C activates the Ras-Raf-1-Mek-MAP Kinase pathway that participates in induction of the nuclear component of NFAT. The increased calcium concentration activates calcineurin which, in turn, activates the cytoplasmic component of NFAT and allows translocation to the nucleus.
Each of the peptides was myristilated as described in Eichholtz et al., J. Biol. Chem., 268:1982-1986 (1993).
Incubation with forskolin/IBMX elevates intracellular cAMP concentrations (FIG. 4), thereby activating PKA. Finally, phorbol 12-myristate 13-acetate (PMA) (10 ng/ml) and ionomycin (2 μM) were added and incubations continued for 4 hr. Controls were incubated with PMA/ionomycin alone or forskolin/IBMX and PMA/ionomycin under conditions as described above. During the last 20 min of the PMA/ionomycin incubation, chloroquine (300 μM) was added to inhibit endogenous lysosomal β-gal activity. The cells were spun out and resuspended in 50 μl of culture medium to which 50 μl of fluorescein di-β-D-galactopyranoside (FDG) was added (0.1 mM final concentration; Molecular Probes). […] The lacZ β-gal activity was measured by flow cytometry configured for fluorescein analysis.

PKA = PKA kinase activity in CaN immunoprecipitate from bovine brain extract; assay type: biochemical

| Compound | reversal of forskolin/IBMX blockade of PMA/ionomycin induced β-gal activity [1] | inhibition of kinase activity (PKA) |
| --- | --- | --- |
| CCCCCCCCCCCCCC(=O)NCC(=O)N[C@@H](CCCNC(=N)N)C(=O)N[C@@H](CCCNC(=N)N)C(=O)N[C@@H](CC(N)=O)C(=O)N[C@@H](C)C(=O)N[C@H](C(=O)N[C@@H](Cc1c[nH]cn1)C(=O)N[C@@H](CC(=O)O)C(=O)N[C@H](C(=O)O)[C@@H](C)CC)[C@@H](C)CC [myristilated PKI peptide] (Myristoyl-GRRNAIHDI-OH) | completely reversed | – |
| GRRNAIHDI [PKI peptide] | – | specifically inhibited |

Source: patent US6107104A, “Modulators of anchoring protein function” (ICOS Corporation, priority 1996, dated 2000)
